The target of experiment [1] is Human GPC3-His (manufactured by ACROBiosystems, Inc.) (human) (UniProt P51654). Kind of experiment: SPR (Biacore T100), antibody captured on anti-human IgG, antigen as analyte, single cycle kinetics. (SPR reads the build-up and loss of mass on a sensor chip optically.)
Experiment [2] shares this target. Kind of experiment: SPR (Biacore T100).

The chains behind the UniProt entries cited, without tags or fusion partners. Residues count along the entry.
UniProt P51654, residues 25-559: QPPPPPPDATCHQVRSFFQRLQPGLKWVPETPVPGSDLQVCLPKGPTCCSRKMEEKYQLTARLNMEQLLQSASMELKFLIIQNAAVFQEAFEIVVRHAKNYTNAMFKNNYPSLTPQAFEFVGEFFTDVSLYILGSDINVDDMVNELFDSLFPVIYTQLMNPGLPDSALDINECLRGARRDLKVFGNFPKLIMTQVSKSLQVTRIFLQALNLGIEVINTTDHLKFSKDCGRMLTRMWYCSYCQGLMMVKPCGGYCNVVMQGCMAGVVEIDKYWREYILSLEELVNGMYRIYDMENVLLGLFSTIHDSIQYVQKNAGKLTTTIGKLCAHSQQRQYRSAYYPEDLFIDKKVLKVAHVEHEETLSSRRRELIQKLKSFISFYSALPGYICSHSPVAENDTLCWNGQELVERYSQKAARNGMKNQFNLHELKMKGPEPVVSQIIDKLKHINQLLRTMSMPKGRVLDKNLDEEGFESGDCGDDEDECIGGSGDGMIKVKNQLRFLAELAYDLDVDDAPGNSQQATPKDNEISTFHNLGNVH

No constants are given. Whether binding was seen depends on the method and setting. Some binding calls cover weakened binding; strength is not graded here.

B1: conventional anti-GPC3 antibody HN3 (IgG4PE R409K) (antibody, V domains shown)
VH: QVQLVQSGGGLVQPGGSLRLSCAASYFDFDSYEMSWVRQAPGKGLEWIGSIYHSGSTYYNPSLKSRVTISRDNSKNTLYLQMNTLRAEDTATYYCARVNMDRFDYWGQGTLVTVSS
In the case of B1, the binding entry in experiment [1] and in experiment [2] was “binds” throughout.

(Values after patent US20220220216A1.)
